According to publication PMC10906223 (JCI Insight, 2024):

What was measured:
[1] = Microsomal stability assay, human liver microsomes; assay type: in vitro ADME; details: Figure 5C
Method: (§1) A total of 445 μL of the working solution was transferred into prewarmed incubation plates for treated (T60) and control (NCF60) measurements. After preincubation (10 minutes at 37°C with constant shaking), 54 μL was transferred to the blank plate, followed by 6 μL of NADPH and 180 μL quenching solution. In parallel, 5 μL of WCDD301 (100 μM) was added into incubation plates (T60 and NCF60) containing microsomes and mixed thoroughly (3 times). For the NCF60 plate, 50 μL of buffer was added, mixed (thoroughly, 3 times), shaken, and incubated at 37°C for 60 minutes. In the quenching plate T0, quenching solution (180 μL) and NADPH cofactor (6 μL) were added. For T60 plate, 54 μL of the mixture was placed into the quenching plate (for T0 point), followed by adding 44 μL NADPH cofactor with shaking incubation at 37°C for 60 minutes. Quenching solution (180 μL) was added to quenching plates at 5, 15, 30, 45, and 60 minutes, and 60 μL of sample was transferred from T60 plate per time point to the quenching plates. For the NCF60 plates, 60 μL sample from the NCF60 incubation plate was transferred to the quenching plate (containing quenching solution) at the 60-minute time point. After plates were shaken for 10 minutes and centrifuged (1,750g, 20 minutes at 4°C), 80 μL of the supernatant was transferred into 240 μL HPLC water for LC-MS/MS analysis. The following first-order kinetic equation was used to calculate half-life (T1/2): [drawing 3]; when
(§2) Then, intrinsic clearance [CLint (microsomal; mic)] and hepatic clearance [CLint (liver)] were predicted using the following equations ([66]): […]

[2] = Microsomal stability assay, CD-1 mouse liver microsomes; assay type: in vitro ADME; details: Figure 5D
Method: as §1, §2

SMILES: CCCNCC(O)COc1ccccc1C(=O)CCc1ccccc1 (stereo not shown) [Propafenone]
- Remaining in hepatic microsomes (100 at 0 min) ([1]; 5 min): 84.9
- Remaining in hepatic microsomes (100 at 0 min) ([1]; 15 min): 45.8
- Remaining in hepatic microsomes (100 at 0 min) ([1]; 30 min): 7.4
- Remaining in hepatic microsomes (100 at 0 min) ([1]; 45 min): 0.2
- Remaining in hepatic microsomes (100 at 0 min) ([2]; 5 min): 34.8
- Remaining in hepatic microsomes (100 at 0 min) ([2]; 15 min): 1.1
- Remaining in hepatic microsomes (100 at 0 min) ([2]; 30 min): 0.1
